{"source": "patent US20240207414A1", "about": "“DISULFIDE-BASED PRODRUG COMPOUND” (Ludwig-Maximilians-Universitat Munchen, priority 2021, published 2024)", "note": "Some of these results come from one statement about several compounds together."}
{"test_system": "A549 cells", "assay": "Cellular reduction assay P12-P16 (FIG. 6)", "type": "cell-based, human", "conditions": "10 μM or 40 μM, 1% vol DMSO, cells under ordinary conditions", "procedure": "Assay Conditions: A549 cells were cultured under standard conditions (Gao, L. et al. Cell Chemical Biology 2021, 28, 1-14. https://doi.org/10.1016/j.chembiol.2020.11.007), left to adhere for 24 h, then compounds were added to 10 μM or 40 μM with 1% vol DMSO. Fluorescence timecourse measurements were acquired as in the chemoreductant assay, with all conditions in triplicates.\nExperimental Results and Discussion: F(t) is the raw fluorescence intensity signal increase in arbitrary units with the same detection settings the probes releasing the same cargo. […] This trend is irrespective of the applied concentration in cells and cellular increase is constant over time. This indicates, that P13-P16 are activated more selectively by specific enzymatic cascades (as e.g. Trx/TrxR), whereas P12 may be activated more unspecifically. Thus, compounds of the invention either have the possibility of being useful by giving selective cargo release in pathologically growing cells or cells under abnormal conditions (P13-P16), or offer novel opportunities of cellular delivery of appended cargoes with optimal response kinetics (P12)."}
{"smiles": "COc1ccc2c(c1)Oc1cc(OC(=O)N3CCN[C@@H]4CSSC[C@@H]43)ccc1C21OC(=O)c2ccccc21", "note": "(mixture of isomers) [Compound P13, 3′-methoxy-3-oxo-3H-spiro[isobenzofuran-1,9′-xanthen]-6′-yl-cis-hexahydro-[1,2]dithiino[4,5-b]pyrazine-1(2H)-carboxylate]", "cargo release / activation inside cells (raw fluorescence F(t))": "not activated inside cells under ordinary conditions to the same extent and as fast as P12"}
{"smiles": "COc1ccc2c(c1)Oc1cc(OC(=O)N3CCN(C(=O)CCC(=O)N4CCN(C)CC4)[C@@H]4CSSC[C@@H]43)ccc1C21OC(=O)c2ccccc21", "note": "(mixture of isomers) [Compound P16, 3′-methoxy-3-oxo-3H-spiro[isobenzofuran-1,9′-xanthen]-6′-yl-cis-4-(4-(4-methylpiperazin-1-yl)-4-oxobutanoyl)hexahydro-[1,2]dithiino[4,5-b]pyrazine-1(2H)-carboxylate]", "cargo release / activation inside cells (raw fluorescence F(t))": "not activated inside cells under ordinary conditions to the same extent and as fast as P12"}
{"smiles": "COc1ccc2c(c1)Oc1cc(OC(=O)N3CCN(C)[C@@H]4CSSC[C@@H]43)ccc1C21OC(=O)c2ccccc21", "note": "(mixture of isomers) [Compound P14, 3′-methoxy-3-oxo-3H-spiro[isobenzofuran-1,9′-xanthen]-6′-yl-cis-4-methylhexahydro-[1,2]dithiino[4,5-b]pyrazine-1(2H)-carboxylate]", "cargo release / activation inside cells (raw fluorescence F(t))": "not activated inside cells under ordinary conditions to the same extent and as fast as P12"}
